The other results are listed elsewhere or left out. Residues, ends and D or L forms follow the SMILES beside them. *: point of attachment. Cbz = O=C(OCc1ccccc1)*
Assays:
Assay in all cases: log2 fold change, soluble protein after heating vs DMSO (PISA); higher = thermal stabilisation; K562 cells, 10 uM, 30 min; active = over 0.2 and 3.5 SD of the protein, either way, in both replicates (recomputed)
IRAK-1-4 Inhibitor I = compound: C1COCCN1CCN2C3=CC=CC=C3N=C2NC(=O)C4=CC(=CC=C4)[N+](=O)[O-] [IRAK-1-4 Inhibitor I]
Method in brief: (§1)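 Quantification of soluble protein used TMTpro 16plex LC-MS/MS, with channel sums equalised. Samples were the supernatant after 21,000xg for 90 min of pooled aliquots from K562 cells (2×10^6 cells/mL) treated with 10 μM compound for 30 min, heated for 3 min over 48°C-58°C, and extracted in PBS with 0.5% NP-40 at 4°C. Values, from duplicates, describe thermal stability against control samples on a log2 fold-change scale.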

Amino acid sequences for entries named in this document (tags omitted). A change or cut given only in a name is not applied to a line headed by its entry.
UniProt O60266: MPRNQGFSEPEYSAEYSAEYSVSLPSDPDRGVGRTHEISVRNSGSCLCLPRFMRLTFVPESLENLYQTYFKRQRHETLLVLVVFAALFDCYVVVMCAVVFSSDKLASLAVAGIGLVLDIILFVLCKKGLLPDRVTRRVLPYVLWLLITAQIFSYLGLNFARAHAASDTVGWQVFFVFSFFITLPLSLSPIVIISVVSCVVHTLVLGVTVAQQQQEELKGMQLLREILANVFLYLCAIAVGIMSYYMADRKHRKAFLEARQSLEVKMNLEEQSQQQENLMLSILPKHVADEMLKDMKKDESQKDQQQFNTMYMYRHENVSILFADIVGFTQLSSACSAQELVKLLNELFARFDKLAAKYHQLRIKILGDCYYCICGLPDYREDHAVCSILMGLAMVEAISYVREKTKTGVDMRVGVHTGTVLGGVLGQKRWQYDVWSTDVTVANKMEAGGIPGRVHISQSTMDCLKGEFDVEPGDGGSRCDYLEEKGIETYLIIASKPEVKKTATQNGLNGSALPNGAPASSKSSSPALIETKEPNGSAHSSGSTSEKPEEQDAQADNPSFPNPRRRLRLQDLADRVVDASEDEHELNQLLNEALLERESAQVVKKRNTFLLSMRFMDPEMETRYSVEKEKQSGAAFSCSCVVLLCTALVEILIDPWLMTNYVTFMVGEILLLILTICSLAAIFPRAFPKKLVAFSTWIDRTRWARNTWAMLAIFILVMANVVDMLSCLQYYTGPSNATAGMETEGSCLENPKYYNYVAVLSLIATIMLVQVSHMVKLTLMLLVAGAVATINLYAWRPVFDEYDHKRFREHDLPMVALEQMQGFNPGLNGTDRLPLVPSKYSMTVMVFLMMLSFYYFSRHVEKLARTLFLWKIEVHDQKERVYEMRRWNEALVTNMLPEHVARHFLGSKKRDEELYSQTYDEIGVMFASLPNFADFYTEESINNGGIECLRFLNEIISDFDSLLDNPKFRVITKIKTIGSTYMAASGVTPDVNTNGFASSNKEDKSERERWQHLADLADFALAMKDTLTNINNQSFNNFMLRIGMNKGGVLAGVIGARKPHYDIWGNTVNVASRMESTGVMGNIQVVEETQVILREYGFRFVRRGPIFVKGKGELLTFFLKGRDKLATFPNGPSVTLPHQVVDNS
UniProt Q53H80, whole entry, looked up: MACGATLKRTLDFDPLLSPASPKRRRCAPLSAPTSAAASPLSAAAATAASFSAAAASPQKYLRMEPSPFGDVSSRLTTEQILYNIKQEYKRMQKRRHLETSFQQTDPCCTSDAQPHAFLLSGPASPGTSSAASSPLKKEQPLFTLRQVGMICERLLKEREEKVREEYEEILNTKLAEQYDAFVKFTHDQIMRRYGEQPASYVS
UniProt Q9UPQ3: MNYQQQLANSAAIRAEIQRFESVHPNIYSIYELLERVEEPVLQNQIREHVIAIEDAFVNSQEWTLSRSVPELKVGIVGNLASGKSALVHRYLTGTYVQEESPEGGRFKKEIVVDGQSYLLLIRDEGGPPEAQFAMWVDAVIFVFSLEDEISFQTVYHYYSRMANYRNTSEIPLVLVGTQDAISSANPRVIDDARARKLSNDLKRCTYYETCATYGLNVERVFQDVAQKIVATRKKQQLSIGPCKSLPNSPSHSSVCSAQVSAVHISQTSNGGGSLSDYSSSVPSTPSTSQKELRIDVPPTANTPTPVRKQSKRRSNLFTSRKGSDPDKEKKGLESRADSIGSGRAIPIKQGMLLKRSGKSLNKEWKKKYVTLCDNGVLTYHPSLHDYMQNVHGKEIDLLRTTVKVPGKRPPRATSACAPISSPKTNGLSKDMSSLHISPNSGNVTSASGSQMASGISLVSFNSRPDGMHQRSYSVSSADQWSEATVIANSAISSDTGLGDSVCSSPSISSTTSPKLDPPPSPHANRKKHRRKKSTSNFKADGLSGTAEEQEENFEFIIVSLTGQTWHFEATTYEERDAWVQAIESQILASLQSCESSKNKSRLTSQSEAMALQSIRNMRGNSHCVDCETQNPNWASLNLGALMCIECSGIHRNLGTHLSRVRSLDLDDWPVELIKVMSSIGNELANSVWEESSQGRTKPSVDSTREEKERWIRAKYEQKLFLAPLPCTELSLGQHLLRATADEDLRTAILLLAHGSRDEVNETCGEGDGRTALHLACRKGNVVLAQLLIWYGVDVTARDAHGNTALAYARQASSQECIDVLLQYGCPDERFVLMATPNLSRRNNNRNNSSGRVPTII
UniProt Q8N7X0: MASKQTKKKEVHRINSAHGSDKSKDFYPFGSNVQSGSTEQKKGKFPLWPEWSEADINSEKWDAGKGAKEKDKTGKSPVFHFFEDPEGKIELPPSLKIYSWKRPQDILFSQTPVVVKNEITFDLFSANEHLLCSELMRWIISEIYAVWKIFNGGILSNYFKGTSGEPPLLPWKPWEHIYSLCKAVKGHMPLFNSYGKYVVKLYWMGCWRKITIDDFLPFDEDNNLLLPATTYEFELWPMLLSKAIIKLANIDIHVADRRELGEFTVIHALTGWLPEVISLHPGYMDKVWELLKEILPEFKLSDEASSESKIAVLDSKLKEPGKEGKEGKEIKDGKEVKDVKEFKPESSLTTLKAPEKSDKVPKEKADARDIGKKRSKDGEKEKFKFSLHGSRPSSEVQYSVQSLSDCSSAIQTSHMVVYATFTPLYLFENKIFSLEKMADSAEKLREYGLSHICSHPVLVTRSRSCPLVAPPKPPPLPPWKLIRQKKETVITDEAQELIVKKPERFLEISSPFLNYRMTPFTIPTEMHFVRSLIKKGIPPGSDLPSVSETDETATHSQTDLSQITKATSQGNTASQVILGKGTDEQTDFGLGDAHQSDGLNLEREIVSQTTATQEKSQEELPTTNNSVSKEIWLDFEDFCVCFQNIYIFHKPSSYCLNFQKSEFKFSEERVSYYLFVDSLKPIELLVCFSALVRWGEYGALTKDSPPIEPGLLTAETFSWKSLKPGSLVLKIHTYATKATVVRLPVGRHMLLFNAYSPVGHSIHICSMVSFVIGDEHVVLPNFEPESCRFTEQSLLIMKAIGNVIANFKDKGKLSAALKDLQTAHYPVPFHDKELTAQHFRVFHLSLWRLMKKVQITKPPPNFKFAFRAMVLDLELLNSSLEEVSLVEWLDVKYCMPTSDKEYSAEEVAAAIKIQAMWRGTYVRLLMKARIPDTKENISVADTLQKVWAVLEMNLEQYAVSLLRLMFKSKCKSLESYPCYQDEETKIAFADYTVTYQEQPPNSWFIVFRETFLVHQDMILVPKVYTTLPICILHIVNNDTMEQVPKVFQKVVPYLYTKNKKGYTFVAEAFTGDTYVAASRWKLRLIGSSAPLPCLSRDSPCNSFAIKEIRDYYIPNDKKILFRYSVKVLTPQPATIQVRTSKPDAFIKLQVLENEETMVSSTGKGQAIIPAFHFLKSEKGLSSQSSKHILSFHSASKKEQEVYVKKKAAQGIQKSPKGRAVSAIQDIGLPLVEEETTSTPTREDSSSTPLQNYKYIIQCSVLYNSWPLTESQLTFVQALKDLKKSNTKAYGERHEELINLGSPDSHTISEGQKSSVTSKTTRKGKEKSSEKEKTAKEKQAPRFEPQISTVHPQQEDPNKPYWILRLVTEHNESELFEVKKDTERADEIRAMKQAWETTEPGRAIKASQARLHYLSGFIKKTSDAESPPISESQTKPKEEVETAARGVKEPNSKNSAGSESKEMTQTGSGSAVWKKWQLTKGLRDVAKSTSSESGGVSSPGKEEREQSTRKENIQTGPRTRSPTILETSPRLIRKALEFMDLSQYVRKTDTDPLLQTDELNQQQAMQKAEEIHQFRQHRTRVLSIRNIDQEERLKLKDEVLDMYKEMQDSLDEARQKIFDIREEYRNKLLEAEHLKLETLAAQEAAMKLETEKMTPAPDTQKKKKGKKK
UniProt P02760: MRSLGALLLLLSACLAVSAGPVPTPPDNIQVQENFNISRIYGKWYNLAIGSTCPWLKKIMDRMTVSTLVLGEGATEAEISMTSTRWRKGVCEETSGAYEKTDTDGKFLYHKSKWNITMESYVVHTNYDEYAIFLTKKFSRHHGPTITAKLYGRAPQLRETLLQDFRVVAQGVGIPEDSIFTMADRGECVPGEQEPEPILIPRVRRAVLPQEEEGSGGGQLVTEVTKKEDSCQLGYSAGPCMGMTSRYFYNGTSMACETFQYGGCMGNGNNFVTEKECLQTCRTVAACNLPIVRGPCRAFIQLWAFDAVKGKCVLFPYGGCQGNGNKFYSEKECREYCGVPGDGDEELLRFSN
UniProt Q96BT7: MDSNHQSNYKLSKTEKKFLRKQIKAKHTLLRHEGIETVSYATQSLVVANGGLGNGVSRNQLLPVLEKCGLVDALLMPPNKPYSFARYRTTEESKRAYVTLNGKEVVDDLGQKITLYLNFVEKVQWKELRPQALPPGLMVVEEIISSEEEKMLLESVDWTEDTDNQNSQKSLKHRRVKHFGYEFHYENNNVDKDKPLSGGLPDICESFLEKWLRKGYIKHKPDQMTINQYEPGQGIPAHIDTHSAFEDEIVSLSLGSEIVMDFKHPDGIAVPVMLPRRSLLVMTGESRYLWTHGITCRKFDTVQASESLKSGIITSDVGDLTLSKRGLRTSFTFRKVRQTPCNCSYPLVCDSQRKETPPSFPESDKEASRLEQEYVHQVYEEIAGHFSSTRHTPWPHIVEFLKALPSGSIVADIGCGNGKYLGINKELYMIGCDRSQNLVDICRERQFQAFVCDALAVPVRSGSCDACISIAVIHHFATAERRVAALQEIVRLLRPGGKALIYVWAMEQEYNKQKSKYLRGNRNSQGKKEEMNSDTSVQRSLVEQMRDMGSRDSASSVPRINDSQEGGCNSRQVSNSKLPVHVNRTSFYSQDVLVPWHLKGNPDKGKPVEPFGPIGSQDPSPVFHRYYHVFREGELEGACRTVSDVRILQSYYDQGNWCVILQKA
UniProt Q9Y672: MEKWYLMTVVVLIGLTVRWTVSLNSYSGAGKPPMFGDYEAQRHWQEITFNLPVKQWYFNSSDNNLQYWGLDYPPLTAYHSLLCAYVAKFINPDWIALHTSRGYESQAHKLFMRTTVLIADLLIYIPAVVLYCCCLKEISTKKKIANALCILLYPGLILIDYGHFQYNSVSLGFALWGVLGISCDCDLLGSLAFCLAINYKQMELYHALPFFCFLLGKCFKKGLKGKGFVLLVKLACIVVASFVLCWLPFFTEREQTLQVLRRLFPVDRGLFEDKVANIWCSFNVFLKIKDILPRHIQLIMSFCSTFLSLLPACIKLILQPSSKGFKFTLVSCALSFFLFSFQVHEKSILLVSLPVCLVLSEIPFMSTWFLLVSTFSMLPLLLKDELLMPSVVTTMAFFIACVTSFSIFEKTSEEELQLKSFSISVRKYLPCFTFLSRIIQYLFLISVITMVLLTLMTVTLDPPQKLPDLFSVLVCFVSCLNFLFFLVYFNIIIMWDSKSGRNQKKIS
UniProt P07327: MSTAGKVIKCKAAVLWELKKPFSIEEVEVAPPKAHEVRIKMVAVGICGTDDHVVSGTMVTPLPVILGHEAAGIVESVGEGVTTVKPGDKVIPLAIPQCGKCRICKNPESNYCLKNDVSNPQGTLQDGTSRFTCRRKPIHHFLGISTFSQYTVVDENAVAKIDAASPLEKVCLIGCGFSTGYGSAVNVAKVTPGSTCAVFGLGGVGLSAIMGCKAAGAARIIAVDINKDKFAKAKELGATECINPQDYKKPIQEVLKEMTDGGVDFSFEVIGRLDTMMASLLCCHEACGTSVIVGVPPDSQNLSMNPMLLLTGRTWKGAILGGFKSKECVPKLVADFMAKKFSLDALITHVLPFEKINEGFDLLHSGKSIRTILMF
UniProt Q6NS38: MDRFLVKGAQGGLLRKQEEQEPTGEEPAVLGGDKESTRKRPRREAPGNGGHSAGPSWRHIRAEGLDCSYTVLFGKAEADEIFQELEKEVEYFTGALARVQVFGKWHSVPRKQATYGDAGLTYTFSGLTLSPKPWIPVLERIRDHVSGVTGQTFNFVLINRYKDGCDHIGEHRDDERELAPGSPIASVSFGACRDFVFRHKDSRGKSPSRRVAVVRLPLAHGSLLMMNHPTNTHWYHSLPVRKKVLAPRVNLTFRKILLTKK
UniProt P05062: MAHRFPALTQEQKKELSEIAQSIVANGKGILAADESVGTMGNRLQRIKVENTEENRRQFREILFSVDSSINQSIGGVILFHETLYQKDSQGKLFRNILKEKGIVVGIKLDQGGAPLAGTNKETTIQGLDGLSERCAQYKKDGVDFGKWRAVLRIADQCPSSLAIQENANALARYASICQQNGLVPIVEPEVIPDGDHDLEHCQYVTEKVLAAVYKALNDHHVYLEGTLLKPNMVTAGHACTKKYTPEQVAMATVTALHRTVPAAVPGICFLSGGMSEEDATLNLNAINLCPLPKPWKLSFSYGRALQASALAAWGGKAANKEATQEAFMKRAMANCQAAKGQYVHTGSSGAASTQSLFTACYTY

[1] = compound: CC(=O)c1cnc2ccc(-c3cc(Cl)c(O)c(Cl)c3)nc2c1N[C@H]1CC[C@H](CN(C)C)CC1
Method in brief: as §1

ralimetinib = compound: CC(C)(C)Cn1c(N)nc2ccc(-c3[nH]c(C(C)(C)C)nc3-c3ccc(F)cc3)nc21 [ralimetinib]
Method in brief: as §1

[2] = compound: CC(C)C1=C2N=C(C=C(N2N=C1)NCC3=CC=CC=C3)NCCCCCCN
Method in brief: as §1

[3] = compound: CC(C)C[C@@H](C=O)NC(=O)[C@H](CC(C)C)NC(=O)[C@H](CC(C)C)NC(=O)OCc1ccccc1
Method in brief: as §1

pinometostat = compound: CC(C)N(C[C@H]1O[C@@H](n2cnc3c(N)ncnc32)[C@H](O)[C@@H]1O)[C@H]1C[C@@H](CCc2nc3cc(C(C)(C)C)ccc3[nH]2)C1 [pinometostat]
Method in brief: as §1

[4] = compound: CC1=C(C2=C(C=C1)C(=O)C3=CC=CC=C3N2CCCN)C
Method in brief: as §1

[5] = compound: CC1=C(C=C(C=C1)NC(=O)C2=CC(=CC=C2)C(C)(C)C#N)NC3=CC4=C(C=C3)N=CN(C4=O)C
Method in brief: as §1

[6] = compound: CC1=C(C=C(C=C1)NC(=O)C2=CC(=CC=C2)N(C)C)NC(=O)C3=CC=C(C=C3)O
Method in brief: as §1

[7] = compound: CC1=CC=C(C=C1)SC2=C3C=C(SC3=CN=C2)C(=O)N
Method in brief: as §1

[8] = compound: CC1=NC(=CC=C1)C2=C(N=C(N2)C(C)(C)C)C3=CC4=NC=CN=C4C=C3
Method in brief: as §1

vemurafenib = compound: CCCS(=O)(=O)Nc1ccc(F)c(C(=O)c2c[nH]c3ncc(-c4ccc(Cl)cc4)cc23)c1F [vemurafenib]
Method in brief: as §1

[9] = compound: CCCS(=O)(=O)Nc1ccc(F)c(C(=O)c2c[nH]c3ncc(Cl)cc23)c1F
Method in brief: as §1

givinostat = compound: CCN(CC)Cc1ccc2cc(COC(=O)Nc3ccc(C(=O)NO)cc3)ccc2c1 [givinostat]
Method in brief: as §1

[10] = compound: CC(C)(O)CC(=O)NCCn1ccc2ncnc(Nc3ccc(Oc4cccc(C(F)(F)F)c4)c(Cl)c3)c21
Method in brief: as §1

[11] = compound: CC1=C(C(CC(=O)N1)C2=CC=C(C=C2)C(F)(F)F)C(=O)NC3=C(C=C4C(=C3)C=NN4)F
Method in brief: as §1

Nexturastat A = compound: CCCCN(Cc1ccc(C(=O)NO)cc1)C(=O)Nc1ccccc1 [Nexturastat A]
Method in brief: as §1

[12] = compound: CCCc1cc(C)[nH]c(=O)c1CNC(=O)c1cc(-c2ccnc(N3CCN(C)CC3)c2)cc2c1cnn2C(C)C
Method in brief: as §1

ibrutinib = compound: C=CC(=O)N1CCC[C@@H](n2nc(-c3ccc(Oc4ccccc4)cc3)c3c(N)ncnc32)C1 [ibrutinib]
Method in brief: as §1

barasertib = compound: CCN(CCCOc1ccc2c(Nc3cc(CC(=O)Nc4cccc(F)c4)[nH]n3)ncnc2c1)CCOP(=O)(O)O [barasertib]
Method in brief: as §1

Measured: log2 fold change

ADCY3 (UniProt O60266)
inactive: IRAK-1-4 Inhibitor I -0.034 | [1] -0.168 | ralimetinib -0.038 | [2] -0.132 | [3] 0.076 | pinometostat 0.109 | [4] 0.171 | [5] -0.006 | [6] 0.02 | [7] 0.135 | [8] 0.043 | vemurafenib -0.17 | [9] 0.024 | givinostat 0.007

AKIRIN2 (UniProt Q53H80)
inactive: IRAK-1-4 Inhibitor I 0.036 | [1] -0.194 | ralimetinib -0.05 | [10] 0.43 | [2] -0.018 | [3] 0.258 | pinometostat 0.044 | [11] 0.058 | [4] -0.024 | [5] 0.106 | [6] -0.056 | [7] 0.037 | [8] -0.083 | Nexturastat A 0.261 | vemurafenib -0.021 | [9] -0.137 | [12] -0.18 | givinostat 0.107

AGAP1 (UniProt Q9UPQ3)
inactive: IRAK-1-4 Inhibitor I -0.109 | ralimetinib -0.125 | [2] -0.232 | [3] 0.186 | pinometostat 0.01 | [6] -0.165 | [8] 0.096 | vemurafenib 0.029 | givinostat 0.037

ADGB (UniProt Q8N7X0)
inactive: IRAK-1-4 Inhibitor I 0.183 | [10] 0.008 | pinometostat 0.078 | [7] -0.019 | [8] -0.322 | Nexturastat A 0.019 | [9] -0.056 | [12] 0.077

AMBP (UniProt P02760)
inactive: IRAK-1-4 Inhibitor I 0.053 | ibrutinib 0.251 | [2] -0.095 | pinometostat -0.285 | [7] 0.111 | [8] -0.045 | vemurafenib 0.223 | [9] -0.244 | [12] -0.266 | givinostat -0.272 | barasertib -0.068

ALDH9A1 (UniProt P49189)
inactive: ibrutinib -0.008 | [1] -0.024 | ralimetinib -0.077 | [10] 0 | [2] -0.27 | [3] 0.185 | [4] -0.035 | [5] 0.004 | [6] 0.004 | [7] -0.015 | Nexturastat A -0.125 | vemurafenib 0.026 | [9] 0.005 | [12] 0.18 | givinostat 0.058 | barasertib 0.05

ANAPC15 isoform 2 (UniProt P60006)
inactive: IRAK-1-4 Inhibitor I 0.163 | [1] 0.097 | [2] 0.054 | pinometostat -0.035 | [4] -0.164 | [7] -0.121 | [8] -0.004 | vemurafenib -0.061 | [9] 0.007 | givinostat 0.093

ADPRH (UniProt P54922)
inactive: IRAK-1-4 Inhibitor I 0.056 | ibrutinib 0.001 | ralimetinib -0.003 | [10] -0.084 | [2] 0.107 | [3] -0.033 | pinometostat 0.021 | [4] 0.037 | [5] 0.014 | [6] -0.008 | [7] -0.002 | [8] -0.134 | Nexturastat A 0.015 | vemurafenib 0.071 | [9] -0.037 | [12] -0.005 | givinostat 0.025 | barasertib -0.036

ALKBH8 isoform 4 (UniProt Q96BT7)
inactive: IRAK-1-4 Inhibitor I 0.123 | ibrutinib 0.079 | [10] -0.136 | pinometostat -0.1 | [5] -0.038 | [8] -0.193 | Nexturastat A -0.013 | [12] 0 | barasertib 0.007

Reprinted at random: 2 entries already listed.
ALDH9A1 (UniProt P49189)
inactive: ibrutinib -0.008 | [1] -0.024 | ralimetinib -0.077 | [10] 0 | [2] -0.27 | [3] 0.185 | [4] -0.035 | [5] 0.004 | [6] 0.004 | [7] -0.015 | Nexturastat A -0.125 | vemurafenib 0.026 | [9] 0.005 | [12] 0.18 | givinostat 0.058 | barasertib 0.05

ADPRH (UniProt P54922)
inactive: IRAK-1-4 Inhibitor I 0.056 | ibrutinib 0.001 | ralimetinib -0.003 | [10] -0.084 | [2] 0.107 | [3] -0.033 | pinometostat 0.021 | [4] 0.037 | [5] 0.014 | [6] -0.008 | [7] -0.002 | [8] -0.134 | Nexturastat A 0.015 | vemurafenib 0.071 | [9] -0.037 | [12] -0.005 | givinostat 0.025 | barasertib -0.036

Next part:

ALG6 (UniProt Q9Y672)
inactive: IRAK-1-4 Inhibitor I -0.035 | ibrutinib -0.086 | [1] -0.05 | [10] -0.047 | [2] -0.038 | pinometostat -0.001 | [11] 0.001 | [4] 0.149 | [5] 0.092 | [7] 0.044 | [8] -0.02 | Nexturastat A -0.032 | vemurafenib -0.041 | [9] 0.065 | [12] 0.023 | givinostat 0.055 | barasertib 0.024

ADH1A (UniProt P07327)
inactive: IRAK-1-4 Inhibitor I 0.079 | pinometostat 0.004 | [5] 0.03 | [8] 0.011

ALKBH2 (UniProt Q6NS38)
inactive: IRAK-1-4 Inhibitor I -0.07 | ibrutinib 0.206 | [1] 0.019 | ralimetinib 0.067 | [10] 0.095 | [3] 0.022 | pinometostat -0.038 | [11] 0.093 | [4] 0.132 | [5] -0.171 | [6] 0.196 | [7] -0.217 | [8] -0.015 | Nexturastat A 0.225 | vemurafenib -0.042 | [9] -0.146 | [12] -0.088 | barasertib 0.017

AMN1 (UniProt Q8IY45)
inactive: ibrutinib -0.012 | [1] -0.163 | [10] -0.09 | [2] 0.022 | [11] -0.082 | [4] -0.008 | [5] -0.051 | [7] -0.066 | Nexturastat A -0.084 | vemurafenib 0.084 | [9] 0.076 | [12] 0 | givinostat -0.172 | barasertib -0.011

ALKBH7 (UniProt Q9BT30)
inactive: ralimetinib 0.145 | [3] -0.003 | [6] 0.036

ALDOB (UniProt P05062)
inactive: [10] 0.002 | [5] 0.053 | Nexturastat A -0.062

ALS2 (UniProt Q96Q42)
inactive: ralimetinib 0.034 | [10] -0.308 | [2] 0.025 | [3] -0.013 | [4] 0.001 | [6] 0.237 | [7] 0.009 | Nexturastat A 0.022 | [9] -0.057 | givinostat 0.027
